Structures can show the parent of a compound that is named as a salt. The list shows a part of the results. This is a noisy data set.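 Yeast growth was read as optical density at 600 nm. The two-hybrid strains grew without histidine, so growth needed the Pex3–Pex19 binding; a compound counted as trypanosome-selective if it cut growth of the trypanosome-pair strain by more than 65% and the human-pair strain by less than 65%.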

Test [1] concerns Saccharomyces cerevisiae HF7c pdr5Δ. The test is described as follows: general growth inhibition of yeast HF7c pdr5Δ in -Leu -Trp medium, relative to DMSO; higher = stronger general growth inhibition. To be noted: 100 µM; 24 h.
For test [2], the system named is human PEX3-PEX19 interaction (yeast two-hybrid). The test is described as follows: growth inhibition of yeast two-hybrid strain reporting HsPex3-HsPex19 interaction, relative to DMSO; higher = stronger inhibition of human Pex3-Pex19 interaction / growth. To be noted: 100 µM; 24 h; 3-aminotriazole 10 mM.
In test [3] the test system is T. brucei Pex3-Pex19 interaction (yeast two-hybrid). The test is described as follows: growth inhibition of yeast two-hybrid strain reporting TbPex3-TbPex19 interaction, relative to DMSO; higher = stronger inhibition of T. brucei Pex3-Pex19 interaction / growth. To be noted: 100 µM; 24 h.

As for `C=C[C@H]1CN2CC[C@H]1C[C@H]2[C@H](O)c1ccnc2ccc(OC)cc12` [Quinine sulfate], the general growth inhibition in test [1] was 50.3%. Further, the growth inhibition is 42.6% in test [2] and 69.8% in test [3].
Take `Cc1nc(N=Nc2ccc(C(=O)O)cc2)c(COP(=O)(O)O)c(C=O)c1O`: in test [1], the general growth inhibition was determined as 48.3%. For the same compound, the growth inhibition in test [2] is 50.1%; in test [3], 66%.
For `O=c1c(O)c(-c2ccc(O)cc2O)oc2cc(O)cc(O)c12` [Morin], in that order: 49.1%, 42.3% and 63.2%.
In the case of `O=C(Nc1ccc([N+](=O)[O-])cc1Cl)c1cc(Cl)ccc1O` [Niclosamide], the general growth inhibition in test [1] came to 33.4%. In addition, the growth inhibition worked out at 20.9% in test [2] and 28.4% in test [3].
For `N=C(N)SCCc1c[nH]cn1` [Imetit dihydrobromide], in that order: 16.7%, 4.21% and 35.7%.
Turning to `CN1CCC(=C2c3ccccc3CC(=O)c3sccc32)CC1` [Ketotifen fumarate], in test [1], the general growth inhibition came out at 45.7%. The growth inhibition in test [2] stood at 43.8%; in test [3] it was 67.4%.
Consider `O=C(O)CCc1ccc(NCc2cccc(Oc3ccccc3)c2)cc1`, for which the general growth inhibition in test [1] amounted to 84.2%. Also, the growth inhibition is 79.2% in test [2] and 78.2% in test [3].
As for `CNCCC(Oc1ccc(C(F)(F)F)cc1)c1ccccc1` (stereo not drawn) [Fluoxetine hydrochloride], the general growth inhibition in test [1] is -1.65%. The growth inhibition was -8.98% in test [2] and 19.3% in test [3].
For `CNC[C@H](O)c1cccc(O)c1` [Phenylephrine hydrochloride], the general growth inhibition in test [1] came out at 53.7%. Besides, the growth inhibition in test [2] amounted to 53.1%; in test [3] it was 69.2%.
`CCCCCN(C)CCC(O)(P(=O)(O)O)P(=O)(O)O` [Ibandronate sodium]: the general growth inhibition in test [1] was found to be 42.6%. In addition, the growth inhibition in test [2] worked out at 51.5%; in test [3], 63.8%.
In the same order, the values of `COc1cc([C@@H]2c3cc4c(cc3[C@@H](O[C@@H]3O[C@@H]5CO[C@@H](C)O[C@H]5[C@H](O)[C@H]3O)[C@H]3COC(=O)[C@H]23)OCO4)cc(OC)c1O` [Etoposide] are 14.6%, 32.6% and 55.1%.

Values taken from the supplement of paper PMC8326762, “A Small Molecule Inhibitor of Pex3–Pex19 Interaction Disrupts Glycosome Biogenesis and Causes Lethality in Trypanosoma brucei” (Frontiers in Cell and Developmental Biology, 2021).
